# Changes are numbered by the printed parent chain. No constants are given. Whether binding was seen depends on the method and setting. Some results given as binding are weak or reduced against the parent protein; the word gives no strength.
# Amino acid sequences for entries named in this document (tags omitted).
# UniProt P0C7U7: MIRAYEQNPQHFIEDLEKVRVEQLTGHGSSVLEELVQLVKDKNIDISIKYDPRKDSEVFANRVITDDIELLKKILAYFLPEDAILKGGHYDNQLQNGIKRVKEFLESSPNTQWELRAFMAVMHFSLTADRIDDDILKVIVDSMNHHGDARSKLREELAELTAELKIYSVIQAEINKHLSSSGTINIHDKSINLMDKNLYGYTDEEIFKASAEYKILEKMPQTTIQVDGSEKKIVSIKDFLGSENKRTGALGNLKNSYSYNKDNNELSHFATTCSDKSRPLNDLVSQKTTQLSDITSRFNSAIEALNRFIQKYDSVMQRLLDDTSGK
# B1: 1LCRV13 (VHH)
# VHH: QVQLQESGGGLVRPGGSLKLSCAASGFTFNWYTMAWYRQVPGEERKMVATITGASGDTKYADSVKGRFTISRDNAKNTVTLQMNSLKPGDTAVYYCHAYLTYDSGSVKGVNYWGQGTQVTVSS
# B2: 1LCRV81 (VHH)
# VHH: B1 VHH with L11S, R13Q, F68S, Y99C
# B3: 1LCRV32 (VHH)
# VHH: QVQLQESGGGMVEPGGSLRLSCAASGFRFSSYAMSWVRQAPGKGLERVSAINSDGDKTSYADSVKGRFTISRDNARNTLYLQMSNLKPEDTAVYYCADRDLYCSGSMCKDVLGGARYDFRGQGTQVTVSS
# How the values were obtained:
# [1] = molecular target: Y. pestis LcrV protein (Yersinia pestis KIM5) (UniProt P0C7U7); test: SPR, BIACORE, LcrV immobilized on CM5 chip
# [2] = molecular target: Y. pestis LcrV protein (Yersinia pestis KIM5) (UniProt P0C7U7); test: ELISA of periplasmic extract on LcrV antigen and on blank wells, OD405
Binder,binding [1],binding [2]
B1,binds,binds
B2,,binds
B3,,binds
